In the supplement of paper PMC9135407:
Several values for one entry are separate records, joined by “and”; a condition that tells them apart may be missing. Equal entries are not always repeated. Structures can show the parent of a compound that is named as a salt. ± gives the standard deviation of the averaged measurements. Some of the results follow. Plates or batches differ in their baseline, so values are only roughly comparable.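 Culture-activated primary human stellate myofibroblasts, where regained lipid droplets signal inactivation. Value: share of Hoechst-counted cells above a per-plate Bodipy cutoff, in duplicate wells, with DMSO negative and nortriptyline positive controls on each plate. Hits: a control-normalized score above the plate's top-tenth-percentile nortriptyline wells, or one of a plate's three best wells. Final well concentrations are not given.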

System: primary human hepatic stellate cells (donor 1)
Experiment: percent Bodipy-positive cells; higher = more lipid droplet accumulation
Details: 48 h
[1] = library stock concentration: 5.9 mM
[2] = library stock concentration: 10 mM
[3] = library stock concentration: 3.33 mM
[4] = library stock concentration: 4.9 mM
[5] = library stock concentration: 80 uM
[6] = library stock concentration: 2 mM

## Cc1ncc(C[n+]2csc(CCO)c2C)c(N)n1 [Thiamine hydrochloride]
  percent Bodipy-positive cells: 21.4 ± 1.6%

## Cc1ncc(C[n+]2csc(CCO)c2C)c(N)n1 [Thiamine]
[1]
  percent Bodipy-positive cells: 14.2 ± 3.8%

## CC(C)c1c(C(=O)Nc2ccccc2)c(-c2ccccc2)c(-c2ccc(F)cc2)n1CC[C@@H](O)C[C@@H](O)CC(=O)O [Atorvastatin calcium]
[2]
  percent Bodipy-positive cells: 44.5 ± 8.7%

## CC(C)c1c(C(=O)Nc2ccccc2)c(-c2ccccc2)c(-c2ccc(F)cc2)n1CC[C@@H](O)C[C@@H](O)CC(=O)O [Atorvastatin Calcium]
[3]
  percent Bodipy-positive cells: 30.3 ± 1.8%
[2]
  percent Bodipy-positive cells: 44.2 ± 6.3%

## CC(C)c1c(C(=O)Nc2ccccc2)c(-c2ccccc2)c(-c2ccc(F)cc2)n1CC[C@@H](O)C[C@@H](O)CC(=O)O [Atorvastatin calcium salt trihydrate]
[2]
  percent Bodipy-positive cells: 88 ± 6.6%

## CC(=O)OCC(=O)[C@@]1(O)CC[C@H]2[C@@H]3CCC4=CC(=O)CC[C@]4(C)[C@H]3[C@@H](O)C[C@@]21C [Hydrocortisone acetate]
[4]
  percent Bodipy-positive cells: 2.21 ± 1.3%
[2]
  percent Bodipy-positive cells: 8.88 ± 1.2%

## CC(=O)OCC(=O)[C@@]1(O)CC[C@H]2[C@@H]3CCC4=CC(=O)CC[C@]4(C)[C@H]3[C@@H](O)C[C@@]21C [Cortell]
[2]
  percent Bodipy-positive cells: 28 ± 5.1%

## CC(=O)OCC(=O)[C@@]1(O)CC[C@H]2[C@@H]3CCC4=CC(=O)CC[C@]4(C)[C@H]3[C@@H](O)C[C@@]21C [Hydrocortisone 21-acetate]
[4]
  percent Bodipy-positive cells: 7.82 ± 4.9%

## CCN[C@H]1CN(CCCOC)S(=O)(=O)c2sc(S(N)(=O)=O)cc21 [Brinzolamide]
  percent Bodipy-positive cells: 32.8 ± 5.3%
[3]
  percent Bodipy-positive cells: 8.78 ± 3.5%
[2]
  percent Bodipy-positive cells: 23.5 ± 3%

## CN1CCN(C2=Nc3cc(Cl)ccc3Nc3ccccc32)CC1 [Clozapine]
[2]
  percent Bodipy-positive cells: 91.25 ± 0.23%

## NS(=O)(=O)c1cc(C2(O)NC(=O)c3ccccc32)ccc1Cl (centres undefined) [Chlorthalidone]
  percent Bodipy-positive cells: 31.7 ± 6.6%
[1]
  percent Bodipy-positive cells: 2.26 ± 0.86%
[2]
  percent Bodipy-positive cells: 6.86% and 28.9%

## O=C(O)Cc1c2ccccc2n2c1[nH]c(=O)c1ccccc12
[5]
  percent Bodipy-positive cells: 10.5 ± 0.92%
Library stock concentration: 400 uM
  percent Bodipy-positive cells: 9.27 ± 1.4%
[6]
  percent Bodipy-positive cells: 12.6 ± 3.4%
[2]
  percent Bodipy-positive cells: 9 ± 6.5%

## COc1ccc(-c2cc(=O)c3c(O)c(OC)c(OC)cc3o2)cc1O [Eupatorin]
[2]
  percent Bodipy-positive cells: 86.5 ± 3.3%

## C=CC(N)CCC(=O)O (centres undefined) [Vigabatrin]
  percent Bodipy-positive cells: 31.4 ± 3.5%
Library stock concentration: 15.5 mM
  percent Bodipy-positive cells: 1.65 ± 0.2%

## C=CC(N)CCC(=O)O (centres undefined) [(?)-gamma-Vinyl GABA]
[2]
  percent Bodipy-positive cells: 11.9 ± 2.3%

## CC(C)(C)c1cnc(CSc2cnc(NC(=O)C3CCNCC3)s2)o1
[5]
  percent Bodipy-positive cells: 50.2 ± 7.9%
[6]
  percent Bodipy-positive cells: 47.6% and 69.9%
[3]
  percent Bodipy-positive cells: 62.7 ± 2.1%

## CCCCCCCCCCCCCCCC(=O)OC/C=C(C)/C=C/C=C(C)/C=C/C1=C(C)CCCC1(C)C [Retinyl palmitate]
[2]
  percent Bodipy-positive cells: 44.4 ± 2%

## COc1cc(Br)c(Nc2nc(-c3c(C)nc4ncccn34)cs2)c(Br)c1
[3]
  percent Bodipy-positive cells: 62% and 54.6%
[2]
  percent Bodipy-positive cells: 89.1% and 64.3%

## O=C(O)CCCCCCCC(=O)O [Azelaic acid]
[2]
  percent Bodipy-positive cells: 51.7% and 39.6%
Library stock concentration: 10.6 mM
  percent Bodipy-positive cells: 21.7 ± 14%

## CC(=O)OCC(=O)[C@@]1(O)CC[C@H]2[C@@H]3CCC4=CC(=O)CC[C@]4(C)[C@@]3(F)[C@@H](O)C[C@@]21C [Fludrocortisone acetate]
  percent Bodipy-positive cells: 25.2 ± 2.2%
Library stock concentration: 4.7 mM
  percent Bodipy-positive cells: 2.56 ± 1.4%
[2]
  percent Bodipy-positive cells: 7.76 ± 1.9%

## CCCn1ncc(-c2ccnc(NC3CC(C)(C)NC(C)(C)C3)n2)c1C
[2]
  percent Bodipy-positive cells: 81.3 ± 0.28%

## COc1ccc2c3c([nH]c2c1)[C@H]1C[C@H]2[C@H](C[C@@H](O)[C@H](OC)[C@H]2C(=O)O)CN1CC3 [Reserpinic acid hydrochloride]
  percent Bodipy-positive cells: 6.81 ± 1.1%

## CC(=Cc1ccc(C(=O)O)cc1)c1ccc2c(c1)C(C)(C)CCC2(C)C
Library stock concentration: 1 mM
  percent Bodipy-positive cells: 11.1 ± 6.5%
[2]
  percent Bodipy-positive cells: 22.4% and 9.27%

## CC(=Cc1ccc(C(=O)O)cc1)c1ccc2c(c1)C(C)(C)CCC2(C)C [TTNPB (Arotinoid Acid)]
[3]
  percent Bodipy-positive cells: 8.31 ± 0.35%
[2]
  percent Bodipy-positive cells: 23.6 ± 3.5%

## COC(=O)C1=C(C)NC(C)=C(C(=O)OCCCN2CCC(c3ccccc3)(c3ccccc3)CC2)[C@@H]1c1cccc([N+](=O)[O-])c1 [(R)-(-)-Niguldipine hydrochloride]
[2]
  percent Bodipy-positive cells: 65 ± 21%

## CC(=O)OCC(=O)[C@@]1(O)CC[C@H]2[C@@H]3CCC4=CC(=O)C=C[C@]4(C)[C@@]3(Cl)[C@@H](Cl)C[C@@]21C
[2]
  percent Bodipy-positive cells: 26.3 ± 14%

## CC[N+](C)(CC)CCOC(=O)C1c2ccccc2Oc2ccccc21 [Methantheline bromide]
  percent Bodipy-positive cells: 8.14 ± 0.48%

## O=C(O)CN1C(=O)c2cccc3cccc(c23)C1=O [Alrestatin]
Library stock concentration: 7.8 mM
  percent Bodipy-positive cells: 17.4 ± 0.29%
[2]
  percent Bodipy-positive cells: 6.46 ± 1.7%

## CCCCN(CCCC)CCCOC(=O)c1ccc(N)cc1 [Butacaine]
  percent Bodipy-positive cells: 10.06 ± 0.079%
[2]
  percent Bodipy-positive cells: 50.2 ± 0.53%

## COC(=O)Nc1nc2cc(C(=O)c3cccs3)ccc2[nH]1 [Nocodazole]
[3]
  percent Bodipy-positive cells: 29.4 ± 10%
Library stock concentration: 6.6 mM
  percent Bodipy-positive cells: 19.7 ± 5%

## Cc1ccc(C(=O)c2ccc(CC(=O)O)n2C)cc1 [Tolmetin sodium]
Library stock concentration: 7.2 mM
  percent Bodipy-positive cells: 9.32 ± 3.4%
[2]
  percent Bodipy-positive cells: 44 ± 26%

## Cc1ccc(C(=O)c2ccc(CC(=O)O)n2C)cc1 [Tolmetin sodium salt dihydrate]
  percent Bodipy-positive cells: 8.48 ± 0.17%

## NNCCc1ccccc1
[2]
  percent Bodipy-positive cells: 9.21 ± 0.62%

## NNCCc1ccccc1 [Phenelzine sulfate]
  percent Bodipy-positive cells: 33.6 ± 4.6%
[2]
  percent Bodipy-positive cells: 17.3% and 10.6%

## NNCCc1ccccc1 [Phenelzine]
[2]
  percent Bodipy-positive cells: 36.5 ± 5.2%

## Cc1nccnc1N1CCCCC1
[2]
  percent Bodipy-positive cells: 34 ± 6.8%
